Reference: PubChem BioAssay AID1259254 (NCATS, 2017)

Test: 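Genome-wide screen for genes that prevent DNA re-replication in cancer cells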 (primary screen)
Cell system: human HCT116 colorectal cancer cells
Reagents: single siRNA against human genes
Time to read-out: 3 days
Read-out: 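Nuclei stained with Hoechst and imaged; cell-cycle phase assigned by DNA content; G2 share scaled per plate, non-targeting siRNA 0%, GMNN siRNA 100%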
Direction: G2 robust z-score and G2 cells, % of GMNN control: higher = more G2 cells, more excess DNA replication; raw share of cells in G2: higher = larger share of cells with G2 DNA content
Call rule: 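An siRNA counts as active if its G2 robust z-score lies at least 5 MADs above the screen median; here such calls match roughly 38% of GMNN control or more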
Shown is a random part of about 59,000 reagents. Over the whole deposit, about 1,550 (2.6%) got an active call. 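G2 share is only a proxy for re-replication; each gene was hit by three separate siRNAs, and active genes were retested.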 Raw values vary from plate to plate and are shown uncorrected. The numbers tell different reagents against one gene apart. Not given: the amount of reagent.

no.	target	reagent	G2 robust z-score	G2 cells, % of GMNN control	raw share of cells in G2 (%)	outcome
1	OGFOD3	1	3.98	30.9	17.3	inactive
2	OGFOD3	2	0.28	4.94	6.46	inactive
3	OGFOD3	3	-0.925	-3.54	1.41	inactive
4	ZNF549 (zinc finger protein 549)	1	0.73	8.1	5.88	inactive
5	ZNF549 (zinc finger protein 549)	2	1.38	12.7	7.57	inactive
6	ZNF549 (zinc finger protein 549)	3	0.445	6.1	5.66	inactive
7	OXT (oxytocin/neurophysin I prepropeptide)	1	-0.948	-3.7	1.94	inactive
8	OXT (oxytocin/neurophysin I prepropeptide)	2	-0.755	-2.34	4.32	inactive
9	OXT (oxytocin/neurophysin I prepropeptide)	3	-0.146	1.94	5.54	inactive
10	TMEM132B (transmembrane protein 132B)	1	1.69	14.9	10.1	inactive
11	TMEM132B (transmembrane protein 132B)	2	-0.995	-4.03	2.13	inactive
12	TMEM132B (transmembrane protein 132B)	3	-0.142	1.97	2.39	inactive
13	LINC02245 (long independently transcribed non-coding RNA 2245)	1	6.16	46.3	20.6	active
14	LINC02245 (long independently transcribed non-coding RNA 2245)	2	0.367	5.55	5.72	inactive
15	LINC02245 (long independently transcribed non-coding RNA 2245)	3	-0.553	-0.925	4.41	inactive
16	MOSMO (modulator of smoothened)	1	-0.683	-1.84	3.37	inactive
17	MOSMO (modulator of smoothened)	2	-0.449	-0.19	3.16	inactive
18	MOSMO (modulator of smoothened)	3	0.361	5.51	5.19	inactive
19	AMN1 (antagonist of mitotic exit network 1 homolog)	1	3.85	30.1	14.4	inactive
20	AMN1 (antagonist of mitotic exit network 1 homolog)	2	-0.128	2.07	3.65	inactive
21	AMN1 (antagonist of mitotic exit network 1 homolog)	3	-0.333	0.621	2.96	inactive
22	OR4P4 (olfactory receptor family 4 subfamily P member 4)	1	0.697	7.87	7.71	inactive
23	OR4P4 (olfactory receptor family 4 subfamily P member 4)	2	0.553	6.86	7.3	inactive
24	OR4P4 (olfactory receptor family 4 subfamily P member 4)	3	-0.366	0.39	2.48	inactive
25	PINLYP (phospholipase A2 inhibitor and LY6/PLAUR domain containing)	1	-0.028	2.77	5.94	inactive
26	PINLYP (phospholipase A2 inhibitor and LY6/PLAUR domain containing)	2	-0.84	-2.95	2.74	inactive
27	PINLYP (phospholipase A2 inhibitor and LY6/PLAUR domain containing)	3	-0.0098	2.9	4.67	inactive
28	GJC2 (gap junction protein gamma 2)	1	3.08	24.6	17	inactive
29	GJC2 (gap junction protein gamma 2)	2	-0.597	-1.23	3.25	inactive
30	GJC2 (gap junction protein gamma 2)	3	0.566	6.95	5.25	inactive

As entered above:
PINLYP (phospholipase A2 inhibitor and LY6/PLAUR domain containing) #3, G2 cells, % of GMNN control → 2.9
AMN1 (antagonist of mitotic exit network 1 homolog) #2, G2 robust z-score → -0.128
